{"sequences": {"note": "By UniProt entry, the sequences of proteins in these tests, tags left out. Residues count along the entry.", "UniProt P52480": "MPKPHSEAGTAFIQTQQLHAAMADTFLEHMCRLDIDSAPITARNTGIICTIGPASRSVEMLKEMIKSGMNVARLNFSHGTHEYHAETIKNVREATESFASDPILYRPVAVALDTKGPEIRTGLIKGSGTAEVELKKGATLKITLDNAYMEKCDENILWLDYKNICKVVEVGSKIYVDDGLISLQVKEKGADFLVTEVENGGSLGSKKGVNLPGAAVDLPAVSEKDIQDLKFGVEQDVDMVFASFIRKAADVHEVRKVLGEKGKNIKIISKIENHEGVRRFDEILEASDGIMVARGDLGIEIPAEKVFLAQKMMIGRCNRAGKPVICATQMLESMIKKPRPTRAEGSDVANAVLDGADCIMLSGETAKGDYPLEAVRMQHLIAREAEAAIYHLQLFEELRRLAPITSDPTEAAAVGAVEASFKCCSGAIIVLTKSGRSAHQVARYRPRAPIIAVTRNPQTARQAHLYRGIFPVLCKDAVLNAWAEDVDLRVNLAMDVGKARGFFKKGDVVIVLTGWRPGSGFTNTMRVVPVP", "UniProt P01108": "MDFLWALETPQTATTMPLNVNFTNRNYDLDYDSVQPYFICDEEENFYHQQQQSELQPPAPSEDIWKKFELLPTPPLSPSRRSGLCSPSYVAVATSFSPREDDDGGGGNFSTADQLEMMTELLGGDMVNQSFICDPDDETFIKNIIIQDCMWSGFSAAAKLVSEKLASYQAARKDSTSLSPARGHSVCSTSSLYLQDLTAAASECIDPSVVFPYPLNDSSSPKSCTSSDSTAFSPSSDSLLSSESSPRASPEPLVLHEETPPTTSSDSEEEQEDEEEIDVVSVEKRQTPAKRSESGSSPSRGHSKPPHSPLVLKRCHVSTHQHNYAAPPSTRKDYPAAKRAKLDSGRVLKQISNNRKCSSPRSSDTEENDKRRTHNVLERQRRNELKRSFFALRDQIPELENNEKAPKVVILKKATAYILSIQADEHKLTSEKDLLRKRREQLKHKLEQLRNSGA", "UniProt P25799, residues 1-431": "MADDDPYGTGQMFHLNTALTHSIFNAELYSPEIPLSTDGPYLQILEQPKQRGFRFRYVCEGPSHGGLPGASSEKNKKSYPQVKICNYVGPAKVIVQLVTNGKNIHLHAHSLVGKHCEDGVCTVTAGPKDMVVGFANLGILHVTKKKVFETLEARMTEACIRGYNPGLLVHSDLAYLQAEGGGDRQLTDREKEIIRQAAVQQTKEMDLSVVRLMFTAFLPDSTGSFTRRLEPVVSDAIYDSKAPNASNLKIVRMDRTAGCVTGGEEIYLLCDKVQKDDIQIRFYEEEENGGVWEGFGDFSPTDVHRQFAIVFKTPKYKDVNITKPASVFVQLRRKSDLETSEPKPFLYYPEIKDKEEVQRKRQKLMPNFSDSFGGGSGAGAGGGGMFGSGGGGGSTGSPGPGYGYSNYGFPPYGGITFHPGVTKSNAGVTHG", "UniProt Q04207": "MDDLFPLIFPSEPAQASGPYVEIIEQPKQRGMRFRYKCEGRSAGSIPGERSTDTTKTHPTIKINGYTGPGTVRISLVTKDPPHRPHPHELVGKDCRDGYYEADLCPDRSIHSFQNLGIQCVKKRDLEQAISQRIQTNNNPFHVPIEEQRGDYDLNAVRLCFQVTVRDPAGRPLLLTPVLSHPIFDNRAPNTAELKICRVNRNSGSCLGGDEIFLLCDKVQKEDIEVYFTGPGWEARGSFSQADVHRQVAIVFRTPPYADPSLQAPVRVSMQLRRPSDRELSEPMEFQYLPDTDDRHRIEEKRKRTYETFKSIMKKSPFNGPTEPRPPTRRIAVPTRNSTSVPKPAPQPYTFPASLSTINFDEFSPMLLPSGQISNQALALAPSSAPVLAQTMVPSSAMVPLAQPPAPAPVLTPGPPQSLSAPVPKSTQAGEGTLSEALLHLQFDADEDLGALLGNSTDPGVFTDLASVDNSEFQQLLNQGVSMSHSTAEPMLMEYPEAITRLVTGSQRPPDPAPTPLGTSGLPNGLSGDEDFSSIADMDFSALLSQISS"}, "source": "paper PMC11392529", "biological_target": "Pyruvate kinase M2 (PKM2), endogenous in primary astrocytes (mouse (endogenous in primary astrocytes)) (UniProt P52480)", "assay": "co-IP; endogenous proteins in primary astrocyte lysate; antibody-conjugated Dynabeads M-270 Epoxy, 4 °C for 1 hr, western blotting; also in astrocytes overexpressing TRIM21 (Figure 6E)", "note": "These are yes or no findings as the source states them, for the method shown. Binding seen in cells or lysates may run through a third protein. Some results given as binding are weak or reduced against the parent protein; the word gives no strength."}
{"substance": "c-myc, endogenous in primary astrocytes (from UniProt P01108 1-454)", "values": [{"measurement": "binding", "value": "binds"}]}
{"substance": "p50 subunit of NF-κB, endogenous in primary astrocytes (from UniProt P25799 1-431)", "values": [{"measurement": "binding", "value": "binds"}]}
{"substance": "p65 subunit of NF-κB, endogenous in primary astrocytes (from UniProt Q04207 1-549)", "values": [{"measurement": "binding", "value": "binds"}]}
